Laboratory results published in the supplement of paper PMC12819154, “High-throughput peptide-centric local stability assay extends protein–ligand identification to membrane proteins, tissues and bacteria” (Nature Structural & Molecular Biology, 2025).
Some of the results follow. Small differences around the control level are noise.

Amino acid sequences for entries named in this document (tags omitted). A change or cut given only in a name is not applied to a line headed by its entry.
UniProt P42859: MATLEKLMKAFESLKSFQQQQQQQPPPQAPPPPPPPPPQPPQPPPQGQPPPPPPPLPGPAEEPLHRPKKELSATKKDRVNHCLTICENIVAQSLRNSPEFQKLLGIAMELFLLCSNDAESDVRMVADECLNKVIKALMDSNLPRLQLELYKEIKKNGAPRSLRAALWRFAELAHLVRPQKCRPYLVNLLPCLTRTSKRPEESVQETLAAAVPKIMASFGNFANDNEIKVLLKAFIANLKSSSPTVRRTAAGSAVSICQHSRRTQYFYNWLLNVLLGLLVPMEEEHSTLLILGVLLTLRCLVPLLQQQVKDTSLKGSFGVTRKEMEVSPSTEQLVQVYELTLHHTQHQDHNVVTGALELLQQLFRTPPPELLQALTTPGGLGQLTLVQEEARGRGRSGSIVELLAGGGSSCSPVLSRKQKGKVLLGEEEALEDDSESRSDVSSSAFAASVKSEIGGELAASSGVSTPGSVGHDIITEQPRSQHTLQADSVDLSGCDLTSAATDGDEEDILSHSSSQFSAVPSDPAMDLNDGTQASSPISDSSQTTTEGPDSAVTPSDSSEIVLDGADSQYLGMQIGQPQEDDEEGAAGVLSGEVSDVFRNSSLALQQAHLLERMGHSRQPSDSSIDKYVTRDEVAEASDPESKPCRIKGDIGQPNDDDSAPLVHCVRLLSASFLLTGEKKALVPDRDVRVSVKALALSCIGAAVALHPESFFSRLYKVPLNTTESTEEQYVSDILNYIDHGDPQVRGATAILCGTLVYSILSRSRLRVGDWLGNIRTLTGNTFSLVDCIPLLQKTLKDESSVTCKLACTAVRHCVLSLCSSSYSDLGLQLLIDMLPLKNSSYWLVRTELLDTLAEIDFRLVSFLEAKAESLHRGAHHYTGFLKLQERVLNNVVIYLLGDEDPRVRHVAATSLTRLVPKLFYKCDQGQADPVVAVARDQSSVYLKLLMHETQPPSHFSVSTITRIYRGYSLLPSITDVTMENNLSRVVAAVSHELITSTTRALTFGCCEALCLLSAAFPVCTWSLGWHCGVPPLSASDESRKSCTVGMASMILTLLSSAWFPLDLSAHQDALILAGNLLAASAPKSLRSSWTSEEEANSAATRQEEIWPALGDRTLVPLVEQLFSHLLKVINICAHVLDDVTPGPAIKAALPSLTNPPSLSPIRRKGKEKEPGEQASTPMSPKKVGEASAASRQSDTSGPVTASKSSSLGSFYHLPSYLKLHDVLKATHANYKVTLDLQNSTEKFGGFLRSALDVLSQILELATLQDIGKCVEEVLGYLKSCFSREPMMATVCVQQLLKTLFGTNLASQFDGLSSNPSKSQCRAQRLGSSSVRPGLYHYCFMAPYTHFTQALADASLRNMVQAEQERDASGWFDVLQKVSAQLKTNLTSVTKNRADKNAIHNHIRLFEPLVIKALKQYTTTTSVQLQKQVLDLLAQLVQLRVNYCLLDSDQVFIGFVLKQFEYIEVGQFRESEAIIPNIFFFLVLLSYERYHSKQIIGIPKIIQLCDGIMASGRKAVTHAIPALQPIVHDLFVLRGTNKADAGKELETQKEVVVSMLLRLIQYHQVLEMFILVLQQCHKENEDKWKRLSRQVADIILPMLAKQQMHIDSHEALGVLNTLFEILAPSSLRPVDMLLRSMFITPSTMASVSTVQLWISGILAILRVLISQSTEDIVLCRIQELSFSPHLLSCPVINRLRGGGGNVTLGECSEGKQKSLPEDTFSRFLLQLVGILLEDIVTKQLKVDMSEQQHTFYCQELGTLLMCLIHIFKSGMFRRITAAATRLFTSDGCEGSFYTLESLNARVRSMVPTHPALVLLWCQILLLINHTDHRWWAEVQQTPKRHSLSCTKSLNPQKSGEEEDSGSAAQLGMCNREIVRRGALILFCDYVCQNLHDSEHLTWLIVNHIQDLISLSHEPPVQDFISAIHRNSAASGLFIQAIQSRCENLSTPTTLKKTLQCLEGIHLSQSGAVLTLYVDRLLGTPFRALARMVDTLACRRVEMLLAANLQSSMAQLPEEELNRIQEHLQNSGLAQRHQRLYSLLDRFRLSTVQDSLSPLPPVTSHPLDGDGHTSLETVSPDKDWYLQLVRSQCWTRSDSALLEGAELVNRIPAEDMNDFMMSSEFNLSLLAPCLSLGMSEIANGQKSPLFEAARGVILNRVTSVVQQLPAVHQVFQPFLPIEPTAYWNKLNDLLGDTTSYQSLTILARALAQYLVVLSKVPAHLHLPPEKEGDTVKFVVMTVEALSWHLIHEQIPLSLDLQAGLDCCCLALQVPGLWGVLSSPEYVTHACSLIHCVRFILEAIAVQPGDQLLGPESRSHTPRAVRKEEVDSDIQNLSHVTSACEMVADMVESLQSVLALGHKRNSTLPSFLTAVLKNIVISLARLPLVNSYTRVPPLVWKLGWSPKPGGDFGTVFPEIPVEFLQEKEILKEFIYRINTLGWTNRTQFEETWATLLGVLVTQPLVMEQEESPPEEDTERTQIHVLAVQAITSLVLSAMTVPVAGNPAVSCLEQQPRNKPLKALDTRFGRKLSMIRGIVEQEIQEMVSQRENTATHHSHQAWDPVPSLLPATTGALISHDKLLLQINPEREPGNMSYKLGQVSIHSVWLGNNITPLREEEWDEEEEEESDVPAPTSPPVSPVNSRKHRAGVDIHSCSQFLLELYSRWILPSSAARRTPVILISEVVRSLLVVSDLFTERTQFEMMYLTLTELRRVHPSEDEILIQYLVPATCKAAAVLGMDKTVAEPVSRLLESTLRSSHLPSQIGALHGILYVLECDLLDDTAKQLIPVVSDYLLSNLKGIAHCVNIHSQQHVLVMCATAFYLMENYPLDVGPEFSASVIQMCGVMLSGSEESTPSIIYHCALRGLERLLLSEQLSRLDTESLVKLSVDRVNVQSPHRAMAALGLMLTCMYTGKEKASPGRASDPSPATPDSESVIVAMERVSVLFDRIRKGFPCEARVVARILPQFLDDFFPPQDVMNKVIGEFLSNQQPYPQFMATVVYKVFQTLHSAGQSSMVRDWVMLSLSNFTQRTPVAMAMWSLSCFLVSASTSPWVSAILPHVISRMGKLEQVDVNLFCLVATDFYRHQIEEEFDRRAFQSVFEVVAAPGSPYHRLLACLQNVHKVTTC
UniProt P42125: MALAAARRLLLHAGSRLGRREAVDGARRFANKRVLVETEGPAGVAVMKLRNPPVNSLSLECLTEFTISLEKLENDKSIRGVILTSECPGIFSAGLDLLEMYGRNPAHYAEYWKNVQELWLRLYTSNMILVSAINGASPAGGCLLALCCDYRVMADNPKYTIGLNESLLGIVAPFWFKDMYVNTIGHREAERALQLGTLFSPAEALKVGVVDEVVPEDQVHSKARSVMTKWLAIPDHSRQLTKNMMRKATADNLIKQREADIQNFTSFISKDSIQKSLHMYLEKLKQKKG
UniProt P53566, whole entry: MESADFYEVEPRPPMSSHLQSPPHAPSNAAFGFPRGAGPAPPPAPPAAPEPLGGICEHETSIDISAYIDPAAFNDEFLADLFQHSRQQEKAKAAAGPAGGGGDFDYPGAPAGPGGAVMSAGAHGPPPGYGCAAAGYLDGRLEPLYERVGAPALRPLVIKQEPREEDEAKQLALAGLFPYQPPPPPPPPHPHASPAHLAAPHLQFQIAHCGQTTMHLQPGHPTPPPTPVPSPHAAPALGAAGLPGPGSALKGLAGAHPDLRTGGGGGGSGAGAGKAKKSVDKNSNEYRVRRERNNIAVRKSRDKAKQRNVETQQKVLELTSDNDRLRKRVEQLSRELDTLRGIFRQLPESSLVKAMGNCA
UniProt P46425: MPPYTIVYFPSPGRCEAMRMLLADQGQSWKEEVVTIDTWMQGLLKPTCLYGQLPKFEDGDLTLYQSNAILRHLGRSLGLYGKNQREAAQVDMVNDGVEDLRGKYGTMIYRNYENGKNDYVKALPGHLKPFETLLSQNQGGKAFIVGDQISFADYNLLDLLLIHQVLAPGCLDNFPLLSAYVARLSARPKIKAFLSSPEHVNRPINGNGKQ
UniProt P51175: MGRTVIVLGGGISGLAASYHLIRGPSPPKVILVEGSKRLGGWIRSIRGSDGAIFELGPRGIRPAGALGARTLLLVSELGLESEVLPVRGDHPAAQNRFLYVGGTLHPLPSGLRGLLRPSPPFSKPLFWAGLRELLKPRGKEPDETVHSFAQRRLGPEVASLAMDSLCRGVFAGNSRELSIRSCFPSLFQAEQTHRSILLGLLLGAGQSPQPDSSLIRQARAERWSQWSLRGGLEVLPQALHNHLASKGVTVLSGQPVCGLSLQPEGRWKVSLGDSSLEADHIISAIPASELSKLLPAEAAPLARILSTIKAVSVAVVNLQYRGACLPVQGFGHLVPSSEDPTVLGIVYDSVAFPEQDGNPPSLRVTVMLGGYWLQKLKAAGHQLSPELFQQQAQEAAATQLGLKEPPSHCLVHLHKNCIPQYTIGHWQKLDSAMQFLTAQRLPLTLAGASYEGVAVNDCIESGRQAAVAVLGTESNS
UniProt P53994: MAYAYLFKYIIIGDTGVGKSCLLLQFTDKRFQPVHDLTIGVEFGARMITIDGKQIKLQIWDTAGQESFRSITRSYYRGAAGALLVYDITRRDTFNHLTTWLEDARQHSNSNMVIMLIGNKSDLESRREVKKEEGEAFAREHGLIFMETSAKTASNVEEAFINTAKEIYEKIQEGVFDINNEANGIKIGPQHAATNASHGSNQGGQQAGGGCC
UniProt P51682: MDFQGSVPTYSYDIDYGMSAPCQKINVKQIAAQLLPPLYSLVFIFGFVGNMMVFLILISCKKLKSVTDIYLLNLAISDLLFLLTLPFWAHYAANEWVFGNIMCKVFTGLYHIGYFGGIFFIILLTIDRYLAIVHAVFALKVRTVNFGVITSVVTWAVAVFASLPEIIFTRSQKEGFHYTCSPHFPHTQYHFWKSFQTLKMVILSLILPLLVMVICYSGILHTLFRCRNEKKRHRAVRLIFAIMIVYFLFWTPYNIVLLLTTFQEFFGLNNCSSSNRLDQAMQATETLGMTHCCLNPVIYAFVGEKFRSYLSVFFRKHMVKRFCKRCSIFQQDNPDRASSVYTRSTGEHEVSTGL
UniProt P50431: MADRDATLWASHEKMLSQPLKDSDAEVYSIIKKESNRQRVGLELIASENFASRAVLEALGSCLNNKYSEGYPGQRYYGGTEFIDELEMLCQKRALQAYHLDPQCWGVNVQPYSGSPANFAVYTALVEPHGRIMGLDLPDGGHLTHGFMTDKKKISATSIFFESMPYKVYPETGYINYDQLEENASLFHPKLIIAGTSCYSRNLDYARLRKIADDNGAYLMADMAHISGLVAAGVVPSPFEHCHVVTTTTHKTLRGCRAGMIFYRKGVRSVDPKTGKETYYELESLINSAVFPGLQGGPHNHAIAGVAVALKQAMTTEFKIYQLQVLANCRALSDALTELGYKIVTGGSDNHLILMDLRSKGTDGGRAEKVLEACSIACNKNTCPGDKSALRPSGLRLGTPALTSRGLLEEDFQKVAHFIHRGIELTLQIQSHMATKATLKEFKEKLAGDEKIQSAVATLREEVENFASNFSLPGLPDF
UniProt P49817: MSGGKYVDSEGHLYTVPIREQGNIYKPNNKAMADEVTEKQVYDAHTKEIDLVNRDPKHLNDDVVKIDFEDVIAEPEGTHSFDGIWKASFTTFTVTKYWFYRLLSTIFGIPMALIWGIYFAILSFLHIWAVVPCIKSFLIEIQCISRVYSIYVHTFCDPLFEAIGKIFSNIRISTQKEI
UniProt P39038: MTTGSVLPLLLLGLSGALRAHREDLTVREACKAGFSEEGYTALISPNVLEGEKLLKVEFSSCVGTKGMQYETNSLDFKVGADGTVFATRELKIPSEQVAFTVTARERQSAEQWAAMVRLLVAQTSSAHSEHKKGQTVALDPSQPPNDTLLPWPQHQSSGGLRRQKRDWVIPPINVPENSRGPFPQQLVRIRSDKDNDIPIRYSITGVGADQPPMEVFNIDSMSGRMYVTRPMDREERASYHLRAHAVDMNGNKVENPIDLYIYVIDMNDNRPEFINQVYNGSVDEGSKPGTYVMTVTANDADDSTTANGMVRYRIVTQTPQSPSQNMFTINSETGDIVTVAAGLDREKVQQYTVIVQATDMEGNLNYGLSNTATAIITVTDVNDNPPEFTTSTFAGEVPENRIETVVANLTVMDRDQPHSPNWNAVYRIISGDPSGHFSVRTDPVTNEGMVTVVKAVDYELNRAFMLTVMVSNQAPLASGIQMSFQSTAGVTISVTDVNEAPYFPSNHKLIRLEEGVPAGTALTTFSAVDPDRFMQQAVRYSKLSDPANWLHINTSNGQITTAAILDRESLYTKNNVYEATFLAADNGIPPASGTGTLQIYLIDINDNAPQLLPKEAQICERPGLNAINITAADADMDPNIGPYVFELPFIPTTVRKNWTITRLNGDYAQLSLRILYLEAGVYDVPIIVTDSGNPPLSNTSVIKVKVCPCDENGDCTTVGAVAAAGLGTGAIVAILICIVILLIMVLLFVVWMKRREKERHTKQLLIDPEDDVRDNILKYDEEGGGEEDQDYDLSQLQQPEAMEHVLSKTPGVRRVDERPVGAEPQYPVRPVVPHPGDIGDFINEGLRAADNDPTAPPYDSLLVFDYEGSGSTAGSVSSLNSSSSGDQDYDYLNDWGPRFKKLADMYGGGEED

What follows are targets tested with CN[C@@H]1C[C@H]2O[C@@](C)([C@@H]1OC)n1c3ccccc3c3c4c(c5c6ccccc6n2c5c31)C(=O)NC4 [staurosporine] (assay: log2 fold change of tryptic peptide abundance, ligand vs vehicle (limited proteolysis) (log2 ratio); higher = more trypsin-susceptible (destabilized)). Details: ligand concentration: 20 uM; sample: mouse liver crude lysate; replicate design: treated separately.

Row | Target | log2 fold change
1 | UniProt P39429 (peptide sequence: LSEKEHHTEQECPKR, peptide start residue: 145) | 0.429
2 | UniProt P50284 (peptide sequence: RHPEGEESPPCPAPR, peptide start residue: 260) | 0.0293
3 | UniProt P50396 (peptide sequence: MLLYTEVTR, peptide start residue: 90) | 0.412
4 | UniProt P42859 (peptide sequence: HVAATSLTR, peptide start residue: 905) | -0.332
5 | UniProt P42125 (peptide sequence: QREADIQNFTSFISKDSIQK, peptide start residue: 256) | -0.346
6 | UniProt P38647 (peptide sequence: DQLPADECNK, peptide start residue: 601) | 0.4
7 | UniProt P35585 (peptide sequence: LGLNDKVLFDNTGR, peptide start residue: 212) | -0.437
8 | UniProt P42209 (peptide sequence: EVTHDLLYEGYR, peptide start residue: 278) | -0.332
9 | UniProt P48302 (peptide sequence: ANDHGYDNFR, peptide start residue: 425) | 0.183
10 | UniProt P53566 (peptide sequence: VLELTSDNDR, peptide start residue: 315) | 0.232
11 | UniProt P37242 (peptide sequence: TVTEAHVATNAQGSHWK, peptide start residue: 224) | 0.419
12 | UniProt P42232 (peptide sequence: ATQLLEGLVQELQKK, peptide start residue: 57) | -0.344
13 | UniProt P46425 (peptide sequence: EAAQVDMVNDGVEDLRGK, peptide start residue: 86) | -0.339
14 | UniProt P51175 (peptide sequence: AVSVAVVNLQYR, peptide start residue: 311) | 0.211
15 | UniProt P51791 (peptide sequence: VCFAQHTPSLPAESPRPLK, peptide start residue: 732) | -0.294
16 | UniProt P47880 (peptide sequence: GLYVPNCDLR, peptide start residue: 182) | 0.315

Row | Target | log2 fold change
17 | UniProt P52293 (peptide sequence: KGVVPQLVK, peptide start residue: 292) | -0.205
18 | UniProt P53994 (peptide sequence: KEEGEAFAR, peptide start residue: 131) | -0.307
19 | UniProt P51682 (peptide sequence: STGEHEVSTGL, peptide start residue: 344) | -0.156
20 | UniProt P50431 (peptide sequence: AGMIFYRK, peptide start residue: 258) | -0.379
21 | UniProt P42925 (peptide sequence: ALAQYLLLLK, peptide start residue: 21) | 0.993
22 | UniProt P38532 (peptide sequence: LLTDVQLMK, peptide start residue: 140) | 0.25
23 | UniProt P49817 (peptide sequence: EIDLVNRDPK, peptide start residue: 48) | 0.152
24 | UniProt P51658 (peptide sequence: KGFYPQPTPR, peptide start residue: 366) | 0.313
25 | UniProt P51885 (peptide sequence: NNQIDHIDEK, peptide start residue: 75) | -0.315
26 | UniProt P39038 (peptide sequence: AVDYELNR, peptide start residue: 456) | -0.413
27 | UniProt P52482 (peptide sequence: GDNIYEWR, peptide start residue: 81) | 0.0256
28 | UniProt P35564 (peptide sequence: TDAPQPDVKDEEGKEEEK, peptide start residue: 518) | 0.225
29 | UniProt P37913 (peptide sequence: TEVKQEESGTLR, peptide start residue: 240) | -0.305
30 | UniProt P43406 (peptide sequence: ILACAPLYHWR, peptide start residue: 135) | -0.205
31 | UniProt P52430 (peptide sequence: LLIGTVFHK, peptide start residue: 341) | 0.103

Given with tabs: entries from further up
Row	Target	log2 fold change
23	UniProt P49817 (peptide sequence: EIDLVNRDPK, peptide start residue: 48)	0.152
24	UniProt P51658 (peptide sequence: KGFYPQPTPR, peptide start residue: 366)	0.313
25	UniProt P51885 (peptide sequence: NNQIDHIDEK, peptide start residue: 75)	-0.315
26	UniProt P39038 (peptide sequence: AVDYELNR, peptide start residue: 456)	-0.413
27	UniProt P52482 (peptide sequence: GDNIYEWR, peptide start residue: 81)	0.0256
28	UniProt P35564 (peptide sequence: TDAPQPDVKDEEGKEEEK, peptide start residue: 518)	0.225
29	UniProt P37913 (peptide sequence: TEVKQEESGTLR, peptide start residue: 240)	-0.305
30	UniProt P43406 (peptide sequence: ILACAPLYHWR, peptide start residue: 135)	-0.205
